15 substances from US5216124A (G. D. Searle & Co., priority 1991, dated 1993) can be followed below.

Some peptides are written in HELM: one residue between dots, names in brackets for other building blocks, links after the first $.

The nature of one data set: general procedure: Boc solid-phase peptide synthesis; Merrifield resin (C-terminal acid); pMBHA resin (C-terminal amide). Conditions: coupling step, monohydrochloride (solution-phase products).
The substance “N-[3-cyclohexyl-N-methyl-N-[N-[N-[(1,1-dimethylethoxy)carbonyl]-2,6-dimethyl-L-tyrosyl]-S-(triphenylmethyl)-D-cysteinyl]-L-alanyl]-3-mercapto-D-valine, methyl ester” yielded a step yield of 97.7%.
For the substance “N-[N-[N-[N-[(1,1-dimethylethoxy)carbonyl]-2,6-dimethyl-L-tyrosyl]-S-(triphenylmethyl)-D-cysteinyl]-L-phenylalanyl]-3-mercapto-D-valine, methyl ester”, the step yield stood at 98%.
As for “N-[N-[N-[N-[(1,1-dimethylethoxy)carbonyl]-2,6-dimethyl-L-tyrosyl]-S-(triphenylmethyl)-cysteinyl]-N-methyl-L-phenylalanyl]-3-mercapto-D-valine, methyl ester”, the step yield was 93.8%.

Staying with this data set, now noted: late stage modification step, monohydrochloride (solution-phase products).
For the substance “2,6-dimethyl-L-tyrosyl-D-cysteinyl-3-(2-thienyl)-L-alanyl-3-mercapto-D-valine, cyclic (2→4)-disulfide, methyl ester, monohydrochloride”, the step yield is recorded as 92.6%.
For the substance “2,6-dimethyl-L-tyrosyl-D-cysteinyl-3-cyclohexyl-L-alanyl-3-mercapto-D-valine, cyclic (2→4)-disulfide, methyl ester, monohydrochloride”, the step yield stood at 97.2%.
The substance “2,6-dimethyl-L-tyrosyl-D-cysteinyl-3-cyclohexyl-N-methyl-L-alanyl-3-mercapto-D-valine, cyclic (2→4)-disulfide, methyl ester, monohydrochloride” displayed a step yield of 94.9%.
The substance “2,6-dimethyl-L-tyrosyl-D-cysteinyl-N-methyl-L-phenylalanyl-3-mercapto-D-valine, cyclic (2→4)-disulfide, methyl ester, monohydrochloride” came in with a step yield of 92.5%.

Still in this data set, the particulars now being: oxidative folding step, analytical HPLC, monohydrochloride (solution-phase products).
On to “PEPTIDE1{[Dmt].[dC].F.[D-Pen]}$PEPTIDE1,PEPTIDE1,2:R3-4:R3$$$V2.0”, for which the “final HPLC purity” value is listed as “greater than 99% pure”.

The same data set, now with this note: oxidative folding step, monohydrochloride (solution-phase products).
As for “N-[(1,1-dimethylethoxy)carbonyl]-2,6-dimethyl-L-tyrosyl-D-cysteinyl-3-cyclohexyl-L-alanyl-3-mercapto-D-valine, cyclic (2→4)-disulfide, methyl ester”, the oxidative folding yield was determined as 22.4%.
Same read-out and setting: the same measure for “N-[(1,1-dimethylethoxy)carbonyl]-2,6-dimethyl-L-tyrosyl-D-cysteinyl-4-chloro-L-phenylalanyl-3-mercapto-D-valine, cyclic (2→4)-disulfide, methyl ester”: 40.6%.
Substance “N-[(1,1-dimethylethoxy)carbonyl]-2,6-dimethyl-L-tyrosyl-D-cysteinyl-4-phenyl-L-2-aminobutanoyl-3-mercapto-D-valine, cyclic (2→4)-disulfide, methyl ester” yielded an oxidative folding yield of 13%.

Still in this data set, the particulars now being: whole synthesis, analytical HPLC, monohydrochloride (solution-phase products).
For the substance “2,3,6-trimethyltyrosyl-D-cysteinyl-L-phenylalanyl-3-mercapto-D-valine, cyclic (2→4)-disulfide, monohydrochloride [Example 82 A]”, the “final HPLC purity” value is reported as “greater than 98% pure”.
The same measure, in the same setting: the same measure for “2,3,6-trimethyltyrosyl-D-cysteinyl-L-phenylalanyl-3-mercapto-D-valine, cyclic (2→4)-disulfide, monohydrochloride [Example 82 B]”: “greater than 98% pure”; for “3-hydroxy-2,4-dimethylphenylalanyl-D-cysteinyl-L-phenylalanyl-3-mercapto-D- valine, cyclic (2→4)-disulfide, monohydrochloride [Example 81 A]”: “greater than 97% pure”; for “3-hydroxy-2,4-dimethylphenylalanyl-D-cysteinyl-L-phenylalanyl-3-mercapto-D- valine, cyclic (2→4)-disulfide, monohydrochloride [Example 81 B]”: “greater than 97% pure”.
